Laboratory results taken from the supplement of paper PMC5949888.
Most values lie at the floor of the assay. Slopes are relative: functional sequences can read slightly below zero.

These substances were tested on Saccharomyces cerevisiae PS128 hsf1 delta, HSF1(1-493) fusion (assay: growth estimate (transactivation domain function in HSF1 fusion, heat-shock survival) (a.u. (slope of normalised read count over time)); higher = stronger growth at 37°C, i.e. more transactivation activity). Conditions: library: random library.
Procedure: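 Random 60-nt DNA library encoding peptides of up to 20 aa, fused to the C-terminus of yeast HSF1 residues 1-493 (C-terminal TAD deleted) and expressed from the native HSF1 promoter on a CEN plasmid in hsf1-deleted S. cerevisiae PS128. Cells were selected at 37°C on -trp 5-FOA plates for 0, 2, 4, 6 and 8 days and amplicons were sequenced. Growth estimate is the slope of a robust linear fit of total-sum-normalised read counts (normalised to the first time point) over time, using at least 2 replicates. Sequences are classed functional (TAD activity) above a threshold of -0.13, set from stop-codon control sequences.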

| Substance | growth estimate |
| --- | --- |
| GYARIPHSC | < -0.25 |
| GYAWEEK | < -0.25 |
| GYCYRSCSRIASLVSEALPW | < -0.25 |
| GYDA | < -0.25 |
| GYDHWVIGGGIYQFALRKPA | < -0.25 |
| GYGDPDVEIEFRAPRKYLFT | < -0.25 |
| GYGLQTKRRVRVSGKPYLKA | < -0.25 |
| GYGRTLWPCCG | < -0.25 |
| GYGSYLHSQVSRIYRPFVYL | < -0.25 |
| GYHRGSM | < -0.25 |
| GYHVCHMCQTCHASCRVCRL | < -0.25 |
| GYISPSRLNVSCGIDQT | < -0.25 |
| GYLPLLEDPQATVFRSVLRT | < -0.253 |
| GYLSSG | < -0.25 |
| GYNSSGDTGPGARTFLLGSM | < -0.25 |
| GYPAITRSSSRRS | < -0.25 |
| GYPGPPSVKFSRGSRVRICS | < -0.25 |
| GYPLLWVKG | -0.187 |
| GYPTIPRRS | < -0.25 |
| GYRDEGARDRFLVGLAGRGG | < -0.25 |
| GYRFCVTSRTMTPRGVREVT | < -0.25 |
| GYRSR | < -0.25 |
| GYRYFERRLQVHVSGQD | < -0.25 |
| GYSHYSVGTSRTVLDRRLNG | < -0.25 |
| GYSKDWQFLLSESGRIFVSR | < -0.25 |

For convenience, part of the list above:

| Substance | growth estimate |
| --- | --- |
| GYGRTLWPCCG | < -0.25 |
| GYGSYLHSQVSRIYRPFVYL | < -0.25 |
| GYHRGSM | < -0.25 |

Next part:

| Substance | growth estimate |
| --- | --- |
| GYSLGVLPHAGFRAIRRYVS | < -0.25 |
| GYSS | -0.209 |
| GYT | < -0.25 |
| GYTPLEGLTTAA | < -0.25 |
| GYTSARGSKRTLMYALDSKD | < -0.25 |
| GYVAR | < -0.25 |
| GYVELRGRLSRPATECSRAV | < -0.25 |
| GYYCASAEGRRKYLKSN | < -0.25 |
| HAEQGANQTPASG | < -0.25 |
| HAGWL | < -0.25 |
| HAIRPACGPGSQIVSLMGVE | < -0.25 |
| HALPAKLRRHTLAKGFASWE | < -0.25 |
| HALSGEVSMLGSGELESLIP | < -0.25 |
| HANSVPLNGWRRTIGALASR | < -0.25 |
| HARFSACVHFEFPFHMLKGY | < -0.25 |
| HARRGTMW | < -0.25 |
| HATGVNETERTLRVSTFCST | < -0.25 |
| HAVEAS | < -0.25 |
| HAVLRGERSELPQEVRYARR | < -0.25 |
| HAVPPGLSL | < -0.25 |
| HAWRSRD | < -0.25 |
| HCCRYVNQI | < -0.25 |
| HCCTPGGPPTNDSNFEGRAH | < -0.25 |
| HCDVKPETRGGRDMITVRLA | < -0.25 |
| HCEFNFSTSADPKRLMERRP | < -0.25 |

| Substance | growth estimate |
| --- | --- |
| HCGMYRPIETDL | < -0.25 |
| HCILAPGAVQHQYCLDAL | < -0.25 |
| HCK | < -0.25 |
| HCLLRGSWGLDHSGTIRFC | < -0.25 |
| HCLRRTDYSRTCCMTYCANI | < -0.25 |
| HCNRQILDLPRKGIRS | < -0.25 |
| HCVGLGKA | < -0.25 |
| HDCSYLPYYQER | < -0.25 |
| HDDHDRTPTIHRVIASPGGP | < -0.25 |
| HDDIRNRVRSGLLRKVQPLP | < -0.25 |
| HDI | < -0.25 |
| HDKKQAPSFGFVSFRVGIWV | < -0.25 |
| HDLGDRVVESKPLTHCGP | < -0.25 |
| HDLWRSRIFQYPLQEPYRPL | < -0.25 |
| HDMF | < -0.25 |
| HDNKARQKTNGLSTGLSLHN | < -0.25 |
| HDPVVDKQNGHVIRFGASEI | < -0.25 |
| HDQGPSKGRPWKLRASSACG | < -0.25 |
| HDRGIPSPQLVSKED | < -0.25 |
| HDWE | < -0.25 |
| HEALLIQSIVYSRHHCNSDR | < -0.25 |
| HEKRSTAVSTVLIHDRLRRA | < -0.25 |
| HERSRCP | < -0.25 |
| HESRRVNGVSGIAPGGTSSA | < -0.25 |
| HETNSEAWL | < -0.25 |

| Substance | growth estimate |
| --- | --- |
| HEVFCCIAVPDVRPVQ | < -0.25 |
| HEWQTSPMQLGAQFRSGHKA | < -0.25 |
| HEYLLQGADTRS | < -0.25 |
| HFE | < -0.25 |
| HFLFVSLLSVEATAVR | < -0.25 |
| HFLS | < -0.25 |
| HFQD | < -0.25 |
| HFT | < -0.25 |
| HFTRVIALILARVLA | < -0.25 |
| HFTVCI | < -0.25 |
| HFYVAVLSPTVARSSSAHQF | < -0.25 |
| HGAWSLHTLSGLPR | < -0.25 |
| HGCLGGLLLWEDSPSRRSIY | < -0.25 |
| HGEVSTVRKRWSMTSETRLD | < -0.25 |
| HGFKARLSVGGGPAEWPIGS | < -0.25 |
| HGFPPGSVSG | < -0.25 |
| HGGDMPS | < -0.25 |
| HGGHS | < -0.25 |
| HGGRRACLSCRISWWIIAVQ | < -0.25 |
| HGKLCWRLAAGSGTSRICMS | < -0.25 |
| HGMVSKEAV | < -0.25 |
| HGPGRLS | < -0.25 |
| HGQLR | < -0.25 |
| HGQSRNTQPGHRAEISHTAL | < -0.25 |
| HGR | < -0.25 |

| Substance | growth estimate |
| --- | --- |
| HGRAIRLFVHIWTLGVGSKC | < -0.25 |
| HGS | < -0.25 |
| HGSEGGSCVLFAKALHLLKS | < -0.25 |
| HGSEPGWDPPRRGLITGSGC | < -0.25 |
| HGSIVLRLWSDENAEQRVRT | < -0.25 |
| HGSNKDVGVHVV | < -0.25 |
| HGTIFHMSAGFWALVDQPMV | < -0.25 |
| HGVTNTVAPAFSPKTLLVSP | < -0.25 |
| HGYGYGPFLKP | < -0.25 |
| HGYLGTPEPVARPQRELTPR | < -0.25 |
| HHCNWHPVAITP | < -0.25 |
| HHEYEDWVVLRS | -0.213 |
| HHFIRPGTRDKGTGVIRSRR | < -0.25 |
| HHHVATQRTFLLGLAYAEPP | < -0.25 |
| HHPALVIPSREPR | < -0.25 |
| HHQLTHASGAVAYQNSL | < -0.25 |
| HHRGRMVPPW | < -0.25 |
| HHSPIFATDEVSRRSAILKA | < -0.25 |
| HHSVLPMVLPFCGLFFGDSF | < -0.25 |
| HHTTMDRPGGSEWTNAP | < -0.25 |
| HHTVVRRHWRPVLSA | < -0.25 |
| HHVGPASPAILTVQVKIVGN | < -0.25 |
| HHVIGESLEERQ | < -0.25 |
| HHVRSTGAS | < -0.25 |
| HIIGTMFLGAARSPQVQGHA | < -0.25 |

| Substance | growth estimate |
| --- | --- |
| HILQGDHMPFQRCQRARITN | < -0.25 |
| HIMCQSVRVIAT | < -0.25 |
| HIPSHLS | < -0.25 |
| HIRLSAPPYAIETI | < -0.25 |
| HIRQGGGLNHAAGKREVLNP | < -0.25 |
| HISRNLPVKGTV | < -0.25 |
| HITRAQQVIWATID | < -0.25 |
| HIVIDRRSCGRHPTIVGMGV | < -0.25 |
| HIVSKGVVGSS | < -0.25 |
| HIYRYHAHPPFTPHYANSEA | < -0.25 |
| HKCPATVMVESIGHLPPASG | -0.246 |
| HKCSEKLSVTALVADRVRDD | < -0.25 |
| HKECKKR | < -0.25 |
| HKFVVTTEKKQGSRSHTEPL | < -0.25 |
| HKLRICGMRSPQAQTDSPRA | < -0.25 |
| HKPRRYLTAVHVERGR | < -0.25 |
| HKRR | < -0.25 |
| HKSGYVICVNISETRRVPLV | < -0.25 |
| HKVCDTHVDLWATHSANRSD | < -0.25 |
| HKY | < -0.25 |
| HLA | < -0.25 |
| HLATRIAYLVLVRKRRLRTS | < -0.25 |
| HLCQ | < -0.25 |
| HLDILQSPTHQLVKGNEMP | < -0.25 |
| HLEAGAVSLPAMAVSTRVEC | < -0.25 |

| Substance | growth estimate |
| --- | --- |
| HLENRILLCHGQRWFHTPVC | < -0.25 |
| HLENVIITVHV | -0.246 |
| HLFARS | < -0.25 |
| HLFRHLMKQATICAYCQRRG | < -0.25 |
| HLFRVTDSRYVDFILSAVKV | < -0.25 |
| HLGIGLDTGWSEI | < -0.25 |
| HLGIRSDTVRRGSYGGGIWH | < -0.25 |
| HLKCVGRGPVMGSHGNRAND | < -0.25 |
| HLLLWCRRFSSMRYPCTFCI | < -0.25 |
| HLLVISG | < -0.25 |
| HLMRWRSNGVYFALWSRVGH | < -0.25 |
| HLPKDASHTP | < -0.25 |
| HLPSWCWALLS | < -0.25 |
| HLPTIKHRSEIPNQAPTLTA | < -0.25 |
| HLRCVCGIENFLLMGSQSLA | < -0.25 |
| HLRVMSVE | < -0.25 |
| HLSNYEFMDFRRINP | < -0.25 |
| HLSRLTVLVGDCNC | < -0.25 |
| HLSTGRCLSPCPPQNGQWLS | < -0.25 |
| HLTAVF | < -0.25 |
| HLTSERTSWRQAL | < -0.25 |
| HLV | < -0.25 |
| HMGGWR | < -0.25 |
| HMLGSTMLPTQ | < -0.25 |
| HMQPRTGSPNVFEFRLRLVC | < -0.25 |

| Substance | growth estimate |
| --- | --- |
| HMRINTHQAVDISCEVNCWV | < -0.25 |
| HMSCYTRVSSQSKGADTVAT | < -0.25 |
| HMTWFRRYFLASILF | -0.246 |
| HNDS | < -0.25 |
| HNFDWAVERPHRPLKLEDAL | < -0.25 |
| HNHCDVGYACHGFS | < -0.25 |
| HNLPGKKLLRSPVADLPHVY | < -0.25 |
| HNLS | < -0.25 |
| HNR | < -0.25 |
| HNVTAA | < -0.25 |
| HPALALYY | < -0.25 |
| HPARAGKK | < -0.25 |
| HPGRRGAPGKVGCQSALFRP | < -0.25 |
| HPKGKPPRHRNQGAGPRQSG | < -0.25 |
| HPNYLGGDGGL | < -0.25 |
| HPRFQT | < -0.25 |
| HPRSLDA | < -0.25 |
| HPTN | < -0.25 |

3 entries picked at random from those above, as already listed:

| Substance | growth estimate |
| --- | --- |
| HLLLWCRRFSSMRYPCTFCI | < -0.25 |
| GYTSARGSKRTLMYALDSKD | < -0.25 |
| GYRYFERRLQVHVSGQD | < -0.25 |
